The text below walks through data of patent EP4793287A1, “TUMOR MICROENVIRONMENT SPECIFICALLY ACTIVATED CD47 ANTIBODY” (Affinity (Shanghai) Biopharmaceutical Co., Ltd., priority 2023, dated 2025).

Chains of the proteins cited; added tags and fusions are not shown. Residues count along the entry.
UniProt Q08722, residues 19-323: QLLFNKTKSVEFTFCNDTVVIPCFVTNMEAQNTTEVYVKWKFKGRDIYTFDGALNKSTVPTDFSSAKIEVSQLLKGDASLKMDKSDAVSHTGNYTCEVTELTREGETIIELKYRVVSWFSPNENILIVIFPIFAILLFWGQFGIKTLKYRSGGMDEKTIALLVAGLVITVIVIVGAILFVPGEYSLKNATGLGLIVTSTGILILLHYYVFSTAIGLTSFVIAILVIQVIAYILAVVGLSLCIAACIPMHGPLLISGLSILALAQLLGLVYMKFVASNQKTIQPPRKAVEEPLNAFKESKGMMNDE

No constants are given. Whether binding was seen depends on the method and setting. Some entries that bind do so weakly or less than the wild type.

B1: 69F12 (antibody, V domains shown)
VH: QSVEESEGGLFKPTDTLTLTCTISGFSLSNYDMIWVRQAPGNGLEYIGIISSRDKAGHAAWAKRRSTITRNPKENTVTLKMTSLTVADTATYFCARRFSSMHGLDIWGPGTLVTVSS
VL: AYDMTQTPSSVSAAVGGTVTIKCQASQSISNYLSWYQQKPGQPPKLLIYLASTLASGVPSRFKGSGSGTQFTLTISGVQCADAATYYCQQGYSSDSVDNVFGGGTEVVVK
notes: Recombinant rabbit monoclonal antibody expressed in Expi293; it was detected with anti-human IgG Fc
B2: 71D6 (antibody, V domains shown)
VH: QSLEESGGDLVKPGASLTLTCTASGFSFSTSYWIYWVRQAPGKGLELIACIATGSDGSTYYASWASGRFTISKTSSTTVTLQMTSLTAADTATYFCAREAGNGVYNLWGQGTLVTVSS
VL: AYDMTQTPASVEVAVGGTVTIKCQASESIRNALAWYQQKPGQPPKLLISGASKLASGVASRFKGSGSATEFTLTISDLECADAATYYCQQYYSSSNVDNGFGGGTEVVVK
notes: as for B1
B3: 70G1 (antibody, V domains shown)
VH: QSVKESEGGLFKPTDTLTLTCTVSGFSLSNYAINWVRQAPGNGLEWIGIINGYGMTYYASWAKSRSTITRNTSENTVTLKLTSLTAADTATYFCARDRYGSYVGYSSDIWGPGTLVTVSS
VL: AYDMTQTPASVEAAVGGTVTIKCQASQNISSRLAWYQQKPGQPPKLLIYGTSTLASGVPSRFRGSGSGTQFSLTISDLECADAATYYCQHGYYYSSSFTTYNAFGGGTEVVVK
notes: as for B1
B4: 74F1 (antibody, V domains shown)
VH: QQQLEESGGDLVKPEGSLTLTCTASGFSFSSRYNMCWVRQAPGKGLEWIACIYTGSSGSTYYASWAKGRFTISKTSSTVDLKMTSLTAADTATYFCAGGSYSYRLNLWGQGTLVTVSS
VL: DVVMTQTPASVSTAVGGTVTIKCQASQSISNELSWYQQKPGQPPKLLIYRASTLESGVSSRFSGSGSGTEFTLTISDLECADAATYYCQATGYGDFGNAFGGGTEVVVK
notes: as for B1
B5: 70H1 (antibody, V domains shown)
VH: QQQLEESGGGLVKPEGSLTLTCTASGFSFSSGYDMCWVRQAPGRGLEWIACIYTRSSGGTYYASWAKGRFTISKTSSTVDLRMTSLTAADTATYFCAGGRSSYRLNLWGQGALVTVSS
VL: DVVMTQTPSPVEAAVGGTVTIKCQASQSISNELSWYQQKPGQPPKLLIYRASTLESGVSSRFKGSGSGTEFTLTISDLECADAATYYCQSTFYGDYGNAFGGGTEVVVK
notes: Rabbit-derived variable regions; also called 70H1.IgG1; 70H1 antibody

This assay concerns the target T1, CD47 on CHOK1-CD47 cells (UniProt Q08722 19-323).
T1 construct: whole, on cells; The rabbits were immunized with human CD47, so human is likely
The assay is described as follows: flow cytometry on CHOK1-CD47 cells. On the technique in general: A flow cytometer gives signals particle by particle.
As to B1, the binding entry is recorded as “binds”.
For B2 the value was “binds”; for B3, “binds”.
The entry for B4 is “binds”.
For B5 the value was “binds”.
